In article PMC10487539, “Glutaryl-CoA Dehydrogenase Misfolding in Glutaric Acidemia Type 1” (International Journal of Molecular Sciences, 2023):
Results are given in words; binding and its absence hold for the method and conditions named. Some results given as binding are weak or reduced against the parent protein; the word gives no strength. Tags and fused reporters may be left off the sequences shown. One block for each binder: values may come before it.

Assays:
Assay in all cases: native gel or EMSA; self-association; BN-PAGE and Western blot of lysates of transfected COS-7 cells (20 mM Hepes pH 7.0, 200 mM NaCl, 1% Triton X-100)
[1] = biological target: human GCDH variant V400M expressed in COS-7 cells (pEF DEST 51 V5) (human) (UniProt Q92947)
[2] = biological target: human GCDH variant R227P expressed in COS-7 cells (pEF DEST 51 V5) (human) (UniProt Q92947)
[3] = biological target: human GCDH variant R138G expressed in COS-7 cells (pEF DEST 51 V5) (human) (UniProt Q92947)
[4] = biological target: human GCDH variant M263V expressed in COS-7 cells (pEF DEST 51 V5) (human) (UniProt Q92947)

B3: human GCDH variant R138G expressed in COS-7 cells (pEF DEST 51 V5) (enzyme, UniProt Q92947 45-438)
chain: RPEFDWQDPLVLEEQLTTDEILIRDTFRTYCQERLMPRILLANRNEVFHREIISEMGELGVLGPTIKGYGCAGVSSVAYGLLARELERVDSGYGSAMSVQSSLVMHPIYAYGSEEQRQKYLPQLAKGELLGCFGLTEPNSGSDPSSMETRAHYNSSNKSYTLNGTKTWITNSPMADLFVVWARCEDGCIRGFLLEKGMRGLSAPRIQGKFSLRASATGMIIMDGVEVPEENVLPGASSLGGPFGCLNNARYGIAWGVLGASEFCLHTARQYALDRMQFGVPLARNQLIQKKLADMLTEITLGLHACLQLGRLKDQDKAAPEMVSLLKRNNCGKALDIARQARDMLGGNGISDEYHVIRHAMNLEAVNTYEGTHDIHALILGRAITGIQAFTASK
- binding [3]: binds

B4: human GCDH variant M263V expressed in COS-7 cells (pEF DEST 51 V5) (enzyme, UniProt Q92947 45-438)
chain: RPEFDWQDPLVLEEQLTTDEILIRDTFRTYCQERLMPRILLANRNEVFHREIISEMGELGVLGPTIKGYGCAGVSSVAYGLLARELERVDSGYRSAMSVQSSLVMHPIYAYGSEEQRQKYLPQLAKGELLGCFGLTEPNSGSDPSSMETRAHYNSSNKSYTLNGTKTWITNSPMADLFVVWARCEDGCIRGFLLEKGMRGLSAPRIQGKFSLRASATGVIIMDGVEVPEENVLPGASSLGGPFGCLNNARYGIAWGVLGASEFCLHTARQYALDRMQFGVPLARNQLIQKKLADMLTEITLGLHACLQLGRLKDQDKAAPEMVSLLKRNNCGKALDIARQARDMLGGNGISDEYHVIRHAMNLEAVNTYEGTHDIHALILGRAITGIQAFTASK
- binding [4]: binds

Continued, values first:

- binding [1]: binds
B1: human GCDH variant V400M expressed in COS-7 cells (pEF DEST 51 V5) (enzyme, UniProt Q92947 45-438)
chain: RPEFDWQDPLVLEEQLTTDEILIRDTFRTYCQERLMPRILLANRNEVFHREIISEMGELGVLGPTIKGYGCAGVSSVAYGLLARELERVDSGYRSAMSVQSSLVMHPIYAYGSEEQRQKYLPQLAKGELLGCFGLTEPNSGSDPSSMETRAHYNSSNKSYTLNGTKTWITNSPMADLFVVWARCEDGCIRGFLLEKGMRGLSAPRIQGKFSLRASATGMIIMDGVEVPEENVLPGASSLGGPFGCLNNARYGIAWGVLGASEFCLHTARQYALDRMQFGVPLARNQLIQKKLADMLTEITLGLHACLQLGRLKDQDKAAPEMVSLLKRNNCGKALDIARQARDMLGGNGISDEYHMIRHAMNLEAVNTYEGTHDIHALILGRAITGIQAFTASK

- binding [2]: binds
B2: human GCDH variant R227P expressed in COS-7 cells (pEF DEST 51 V5) (enzyme, UniProt Q92947 45-438)
chain: RPEFDWQDPLVLEEQLTTDEILIRDTFRTYCQERLMPRILLANRNEVFHREIISEMGELGVLGPTIKGYGCAGVSSVAYGLLARELERVDSGYRSAMSVQSSLVMHPIYAYGSEEQRQKYLPQLAKGELLGCFGLTEPNSGSDPSSMETRAHYNSSNKSYTLNGTKTWITNSPMADLFVVWAPCEDGCIRGFLLEKGMRGLSAPRIQGKFSLRASATGMIIMDGVEVPEENVLPGASSLGGPFGCLNNARYGIAWGVLGASEFCLHTARQYALDRMQFGVPLARNQLIQKKLADMLTEITLGLHACLQLGRLKDQDKAAPEMVSLLKRNNCGKALDIARQARDMLGGNGISDEYHVIRHAMNLEAVNTYEGTHDIHALILGRAITGIQAFTASK
